{"source": "patent US7713942B2", "about": "“Cage-like microparticle complexes comprising sterols and saponins for delivery of polynucleotides” (Nordic Vaccine Technology A/S, priority 2001, dated 2010)", "test": "Incorporation of Dil into ISCOMs", "conditions": "150 μg/ml, absorption at 552 nm vs standard in methanol"}
{"molecule": "CCCCCCCCCCCCCCCCCCN1C(=CC=CC2=[N+](CCCCCCCCCCCCCCCCCC)c3ccccc3C2(C)C)C(C)(C)c2ccccc21.[O-][Cl+3]([O-])([O-])[O-]", "note": "[Dil, 1,1′-dioctadecyl-3,3,3′,3′-tetramethylindocarbocyanine perchlorate]", "values": [{"measurement": "Percent incorporation", "setting": "Dil dissolved in DMF", "result": "93/104"}, {"measurement": "Percent incorporation", "setting": "Dil dissolved in EtOH", "result": "97/85"}]}
